# Test results reported in PubChem BioAssay AID540276 (National Center for Advancing Translational Sciences (NCATS), 2011).
# The whole screen tested about 300,000 compounds, of which about 5,400 (1.8%) were called active. The shares of active, inactive and inconclusive entries below differ from those in the screen. Calls follow the shape of the full dose curve; tested in HEK293 cells. A potency beside an inconclusive call is a rough fit, not a confirmed value.
# Test: qHTS for inhibitors of binding or entry into cells for Marburg Virus
# Conditions: Marburg virus pseudotyped entry inhibition, cell reporter; activity change, negative = inhibition: at 37.8 µM (top of the series) unless noted
# % is scaled to controls: 0 for no effect and ±100 for the full control effect; potency is read from the fitted curve at half-maximal effect.
Structure (SMILES),"activity change, negative = inhibition",Potency
Cc1ccc(S(=O)(=O)NCCC(=O)NCc2ccc3c(c2)OCO3)cc1C,inactive: 3.38% [at 46.1 µM],
COc1ccc(N2CCN(c3oc(COc4ccccc4Cl)nc3C#N)CC2)cc1,,"inconclusive: 14.6 µM [inhibitor, partial curve]"
CC(C)n1nnnc1SCC(=O)N(C)C1CCS(=O)(=O)C1 (stereo not drawn),,"inconclusive: 12.6 µM [activator, partial curve, poor fit]"
Cc1ccccc1OCc1nc2ccc(S(=O)(=O)N3CCOCC3)cc2[nH]1,inactive: -6.9%,
O=[N+]([O-])c1ccc(N2CCCCC2)s1,inactive: 14.7% [at 46.1 µM],
Cc1ccc2nc(SCc3nc4c(cnn4-c4ccccc4)c(=O)[nH]3)[nH]c2c1,,"inconclusive: 11.2 µM [inhibitor, partial curve, poor fit]"
CCc1ccccc1OCC(=O)Nc1ccc(S(=O)(=O)Nc2nc(C)cc(C)n2)cc1,,"inconclusive: 3.55 µM [inhibitor, single point]"
CCCN(CC1CC1)C(=O)CSc1nnc(-c2cc(-c3cccs3)nc3ccccc23)o1,,"inconclusive: 35.5 µM [inhibitor, single point]"
COc1ccccc1NC(=O)CSc1nc(-c2ccc(C(C)(C)C)cc2)c(C#N)c(=O)[nH]1,inactive: 12% [at 46.1 µM],
O=C(NCCn1ccc2ccccc21)c1ccc(Cl)cc1,,"inconclusive: 8.91 µM [activator, partial curve, poor fit]"
CC(=O)Nc1ccc(Oc2nc(-c3ccccn3)nc3ccccc23)cc1,,"inconclusive: 35.5 µM [inhibitor, single point]"
CC(C)c1ccc(Nc2cc(C(=O)NC3CCCCC3)c3ccccc3n2)cc1,inactive: -26.7% [at 46.1 µM],
CCOc1ccc(Br)cc1CN(CC)CC,,"inconclusive: 10 µM [inhibitor, partial curve]"
Cc1ccc2c(c1)C1CN(C)CCC1N2Sc1ccccc1[N+](=O)[O-] (stereo not drawn),,"inconclusive: 22.4 µM [inhibitor, single point]"
CC(=O)Nc1ccc(S(=O)(=O)NNC(=O)c2ccc(S(=O)(=O)N3CCCCC3)cc2)cc1,,"inconclusive: 5.62 µM [inhibitor, single point]"
CCOc1cc(/C=N/Nc2nc3ccccc3[nH]2)cc(Br)c1OCC(=O)N(C)C,,"inconclusive: 22.4 µM [inhibitor, single point]"
CC1=C(C(=O)OCCNC(=O)c2ccccc2O)C(c2ccccc2[N+](=O)[O-])C(C(=O)OCC2CCCO2)=C(C)N1 (stereo not drawn),,"inconclusive: 10.3 µM [inhibitor, partial curve, poor fit]"
CCOC(=O)Cc1nnc2c(Nc3ccc(Cl)cc3)nc3nonc3n12,,"inconclusive: 20.6 µM [inhibitor, single point]"
Cc1cccc(C(=O)NCN2CCN(c3ccccc3C#N)CC2)c1,inconclusive: -22.9% [inhibitor],
COC(=O)c1cc(COc2ccc3oc(C)c(C(=O)OC)c3c2)c(C)o1,,"inconclusive: 25.9 µM [inhibitor, partial curve, poor fit]"
COCc1ccc(C(=O)Nc2cccc(S(=O)(=O)N(C)c3ccccc3)c2)cc1,,"inconclusive: 22.4 µM [inhibitor, single point]"
COc1ccccc1OC[C@H](O)CN1CCN(CC(=O)Nc2c(C)cccc2C)CC1,,"inconclusive: 6.51 µM [inhibitor, partial curve, poor fit]"
CCN(Cc1cc2cccc(C)c2[nH]c1=O)C(=O)c1ccccc1OC,inactive: -1.97%,

Structure (SMILES),"activity change, negative = inhibition",Potency
CCN(CC)C1=NC(=[N+](CC)CC)c2ccccc21,,"inconclusive: 6.51 µM [inhibitor, full curve, poor fit]"
COc1cccc(C(=O)Nc2cc(C)nn2-c2ccccc2)c1OC,,"inconclusive: 11.2 µM [inhibitor, partial curve, poor fit]"
COc1cccc(OC)c1C(=O)NC(=S)Nc1ccc2c(c1)Cc1ccccc1-2,,"inconclusive: 6.51 µM [activator, partial curve]"
Cc1ccc(NC(=S)Nc2c(C)n(C)n(-c3ccccc3)c2=O)cc1,,"inconclusive: 3.55 µM [inhibitor, single point]"
N#Cc1cc2sc3nnc(-c4ccncc4)n3c2cc1C#N,,"inconclusive: 35.5 µM [inhibitor, single point]"
CCOc1ccc(C(=O)c2oc3ccccc3c2NC(=O)Cc2coc3ccc(CC)cc23)cc1,inactive: 27% [at 46.1 µM],
COC(=O)c1ccccc1S(=O)(=O)N1CCC(C(=O)OCC(=O)c2ccccc2OC)CC1,inactive: -1.01%,
CC1=CN2C(=N)/C(=C\c3cn(CCCOc4ccccc4)c4ccccc34)C(=O)N=C2S1,,"inconclusive: 0.0891 µM [inhibitor, full curve, poor fit]"
COc1cc([N+](=O)[O-])ccc1NC(=O)COC(=O)c1n[nH]c2ccccc12,inactive: -15.9%,
Cc1ccc(C(C)C)cc1S(=O)(=O)NC1CC(C)(C)NC(C)(C)C1,,active: 12.6 µM
CC1=C(C(=O)OC2CCCC2)C(c2coc3ccccc3c2=O)C2=C(CCCC2=O)N1 (stereo not drawn),,"inconclusive: 10 µM [inhibitor, single point]"
O=C(COc1ccc(F)cc1)Nc1ccc2nc(SCC(=O)N3CCOCC3)sc2c1,,"inconclusive: 20 µM [inhibitor, single point]"
COc1ccc(OCCC(=O)Nc2ccc(S(N)(=O)=O)cc2)cc1,inactive: -7.62% [at 46.1 µM],
O=C(/C=C/c1ccc(OC(F)F)cc1)Nc1cccc(S(=O)(=O)N2CCOCC2)c1,,"inconclusive: 28.2 µM [inhibitor, single point]"
Cn1c(=O)oc2cc(S(=O)(=O)Nc3cccc(C(=O)O)c3)ccc21,,"inconclusive: 20.6 µM [activator, single point]"
CCCCNS(=O)(=O)c1ccc(NC(=O)c2c(-c3ccccc3Cl)noc2C)cc1,,"inconclusive: 29.1 µM [inhibitor, single point]"
COC(=O)c1sc(NC(=O)COc2c(C)cccc2C)nc1C,,"inconclusive: 6.31 µM [activator, full curve, poor fit]"
CCCC(C)NC(=O)c1cccc(Oc2ccccc2)c1 (stereo not drawn),,"inconclusive: 35.5 µM [inhibitor, single point]"
CCOC(=O)c1sc(NC(=O)CC2OC(=O)c3ccccc32)nc1C (stereo not drawn),inactive: -8.44%,
CC(OC(=O)c1ccccc1Nc1ccc(SC(F)F)cc1)C(N)=O (stereo not drawn),inactive: -34.5%,
CNc1ncc(C(=O)c2ccc(Cl)c(Cl)c2)s1,,"inconclusive: 9.2 µM [activator, partial curve, poor fit]"
COc1ccc(C2=NC(c3ccncc3)=Nc3ccc(OC)cc3N2)cc1,,"inconclusive: 5.01 µM [inhibitor, full curve]"
O=C1CNC(=S)N1c1nc2ccccc2s1,inactive: 10.7%,

# Some of the entries so far, tab-delimited.
Structure (SMILES)	activity change, negative = inhibition	Potency
CCCN(CC1CC1)C(=O)CSc1nnc(-c2cc(-c3cccs3)nc3ccccc23)o1		inconclusive: 35.5 µM [inhibitor, single point]
COc1ccccc1NC(=O)CSc1nc(-c2ccc(C(C)(C)C)cc2)c(C#N)c(=O)[nH]1	inactive: 12% [at 46.1 µM]	
O=C(NCCn1ccc2ccccc21)c1ccc(Cl)cc1		inconclusive: 8.91 µM [activator, partial curve, poor fit]
CC(=O)Nc1ccc(Oc2nc(-c3ccccn3)nc3ccccc23)cc1		inconclusive: 35.5 µM [inhibitor, single point]

# Single values from the list:
# Under Potency, Cn1c(=O)oc2cc(S(=O)(=O)Nc3cccc(C(=O)O)c3)ccc21 reads inconclusive: 20.6 µM [activator, single point]
# Under Potency, O=C(/C=C/c1ccc(OC(F)F)cc1)Nc1cccc(S(=O)(=O)N2CCOCC2)c1 reads inconclusive: 28.2 µM [inhibitor, single point]

# More results:

Structure (SMILES),"activity change, negative = inhibition",Potency
COc1ccc2c(c1)C(=O)CC(c1ccccc1)O2 (stereo not drawn),,"inconclusive: 5.01 µM [activator, full curve, poor fit]"
COc1ccccc1-c1cc(C(=O)N2CCN(c3ccccc3OC)CC2)no1,,"inconclusive: 2.06 µM [inhibitor, partial curve]"
CC1CCN(C(=O)c2cc(-c3ccc(Br)cc3)on2)CC1,,"inconclusive: 11.2 µM [activator, partial curve, poor fit]"
Cc1cc(C(=O)Nc2sc3c(c2C#N)CCC(C(C)(C)C)C3)no1 (stereo not drawn),,"inconclusive: 4.61 µM [inhibitor, single point]"
COc1ccc2cnn(-c3ccccc3C)c(=O)c2c1OC,,"inconclusive: 22.4 µM [inhibitor, single point]"
COCCCNC(=O)c1cc(Sc2nnc(C)s2)nc2ccccc12,inactive: 10.9%,
CC(C)Sc1ccc([N+](=O)[O-])cc1C(=O)Nc1ccncc1,inactive: -8.83% [at 46.1 µM],
Cc1ccc(NC(=O)C2CC2)cc1S(=O)(=O)N1CCOCC1,,"inconclusive: 6.31 µM [inhibitor, single point]"
COc1ccc(NC(=S)NC(=O)Cc2ccccc2)c(OC)c1,inactive: 6.97% [at 46.1 µM],
Cc1ccc(Cn2cc(C=O)c(-c3ccc(C)cc3)n2)cc1,,"inconclusive: 35.5 µM [inhibitor, single point]"
CCOc1ccccc1NC(=S)NC(=O)C1CCCCC1,inactive: -28.5% [at 46.1 µM],
COc1cc(-c2nnc(COC(=O)CSCC(=O)Nc3cc(C)on3)o2)cc(OC)c1OC,,"inconclusive: 7.94 µM [activator, partial curve, poor fit]"
CC(/C=N/NC(=O)c1cccs1)=C\c1ccco1,inactive: 10.4% [at 46.1 µM],
O=C(Nc1ccc(C(F)(F)F)cc1)c1cc(-c2cccnc2)nc2ccc(Br)cc12,,"inconclusive: 5.17 µM [inhibitor, partial curve, poor fit]"
Cc1ccc(OCC(=O)N2CCN(S(=O)(=O)c3ccccc3[N+](=O)[O-])CC2)cc1,,"inconclusive: 0.891 µM [inhibitor, full curve, poor fit]"
COc1ccccc1N1CCN(/N=C/c2cc(OC)c(O)c(OC)c2)CC1,,"inconclusive: 35.5 µM [activator, single point]"
CC(C(=O)Nc1ccc(Cl)cc1Cl)N1CC=C(c2ccccc2)CC1 (stereo not drawn),,"inconclusive: 0.891 µM [activator, partial curve]"
CC1(C)Cc2c(sc(NC(=O)Cc3ccccc3)c2C#N)CO1,inactive: 3.36% [at 46.1 µM],
c1ccc(CNc2nc(-c3cccs3)nc3ccccc23)cc1,,inactive
COc1ccccc1-c1cc(-c2ccc(C)cc2)nc(SCc2nnc(-c3ccccc3)o2)c1C#N,,"inconclusive: 1.64 µM [inhibitor, partial curve, poor fit]"
O=C(O)C1CC=CCC1C(=O)N1CCN(c2nc(-c3ccccc3Cl)c3cc(Br)ccc3n2)CC1 (stereo not drawn),inactive: -20.2%,
COc1ccc(-c2csc3ncnc(N4CCN(S(=O)(=O)c5cccs5)CC4)c23)cc1,,"inconclusive: 11.2 µM [inhibitor, partial curve, poor fit]"
